Results from patent publication US8951938B2, “Combinatorial rosamine library to detect cell-state switching” (New York University, priority 2007, dated 2015).

Tested on: C2C12 myoblasts
Test: High-throughput screen for myogenesis inhibitors with E26 staining
Format: cell-based, murine
Settings: 48 h with compound, 1 μM E26 staining after five days, p<0.05

Q: `CN[C@@H]1C[C@H]2O[C@@](C)([C@@H]1OC)n1c3ccccc3c3c4c(c5c6ccccc6n2c5c31)C(=O)NC4` [staurosporine] was tested. Which “inhibition of differentiation (decrease of E26 fluorescent signal)” value did it give?
A: reduced the fluorescent signal to a significant extent
